This note sets out measurements from patent US20140322771A1, “Lipid Production” (THE UNIVERSITY OF QUEENSLAND, priority 2010, published 2014).

The data set is described as follows: In vitro fusion assay of artificial lipid droplets (light scattering).

Regarding “phosphatidic acid (1,2-Diacyl-sn-glycerol 3-phosphate) [PA]”, the “fraction of PA that achieves coalescence of artificial LDs” value was approximately 5% (PC covered LDs, PC:PA 20:1) and approximately 3 % molar ratio (in the presence of PE, PC:PE:PA 3:1:0.13). In addition, the “number of artificial LDs during incubation” value (increased concentration of PA in artificial LDs, light scattering) was “decreased significantly”.
